Assay results from PubChem BioAssay AID1347423 (Functional Genomics Laboratory (NCATS/FGL), 2020).
Screen size: about 52,000 sequences; about 210 (0.4%) were called active.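 How the source made its calls: active means gene whose silencing raises cell survival under the drug, median off-target-corrected z-score across its silencing RNAs 2 or more; inactive means the rest.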 The list shows a part of the results.

assay: Resistance to Poly (ADP-Ribose) Polymerase inhibitor: Gene Identification via Genome-wide siRNA Screen; details: mouse BRCA2 R2336H ES cells, olaparib, CellTiter-Glo viability; active compounds read high
How it was run: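 Mouse BRCA2 R2336H ES cells were reverse-transfected with siRNA (20 nM final), treated at 48 h with 500 nM olaparib, and read by CellTiter-Glo after 72 h. Scores: MAD-based z per siRNA, median per gene, seed off-target correction.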

Sequence | z-score
AGACUCGUACACGCAGGAATT against Ggn | inactive: -1.48
CCCUCAGCAGCUCCAACAATT against Olfr739 | inactive: -0.612
GGGCUCUUUUUGGCGAAUATT against Foxk1 | inactive: -1.35
GGUGCUCUUAAUUCAUAUATT against 1300013D05Rik | inactive: -0.359
GGCCAAAUUUAUAAUGAACTT against BC003885 | inactive: 0.344
CGUGGACUCCGUUAUCAUUTT against B830021E24Rik | inactive: 0.088
GGUUUCACUAAGACUUAACTT against Ddx27 | inactive: 0.363
GGUGAAGCCAAGAAUAGCATT against 3830405G04Rik | inactive: -0.699
GGUCUUUCAGUUGGAUAUATT against Celsr2 | inactive: -1.97
GGAGUUGGAUAUUCUAAAATT against 6030413G23Rik | inactive: 1.18
GGGAUCCGUAAAGAAGAAATT against 4930457P18Rik | inactive: -0.091
UCUAUGCAUGGCCCUUUAATT against Olfr726 | inactive: -0.732
GGCAGUGAGGUGUAUUGUUTT against 2210413P12Rik | inactive: -2.48
GGUUCUCUAUUUUCAGCACTT against Temt | inactive: 1.03
CCUAUGACACAAGUGAUACTT against A630098A13Rik | inactive: -0.553
UACUAGCAGAUUAACCACCTT against Hist1h2bc | inactive: 0.583
GGUUGUGCUGAAGAGGUUGTT against Rpl18 | inactive: -2.39
GGAGAAGAGUUAUUGGAUATT against Dnajb4 | inactive: 1.39
GGGACCAGAUGAAGAAGGATT against Coq4 | inactive: -2.98
GGUCAUGGCAUUGAACAGUTT against Tbc1d7 | inactive: 1.53
GGUGAAGCUCACCAACAAUTT against Tbx20 | inactive: 0.218
GGGAUCUCAUUGCACAUUUTT against BC036718 | inactive: -1.55
CCUCUGGAGGAGUAAGGUUTT against Trh | inactive: -0.408
GCACAUAUCACGCUACCUGTT against AI646023 | inactive: 0.00426
GGUGACUGACAGCUGCCAATT against Prima1 | inactive: -0.633
CCUUCCAGUAGACAUGGAATT against Zfp261 | inactive: 0.395

Sequence | z-score
GGAAAAGUUAAAGGAAGUCTT against 6330548G22Rik | inactive: -0.193
GGAAUGGAUAAAAACAUUGTT against Tank | inactive: 1.26
GGUGCGUCCUGAAAUCAUCTT against 0610040B21Rik | inactive: -1.56
GGCAGAAAUCCAUCAGAGATT against Plekhk1 | inactive: -0.327
GGAUUAUGUCCUGAAGAUGTT against Cyp8b1 | inactive: -0.968
GAAAAUCUAAGGAUCCUUGTT against V1rd17 | inactive: 1.16
CGAAAUUGUGAUGAUGAACTT against Mast1 | inactive: -0.492
UGCUCUUGGGUUCUUAAAUTT against Olfr1466 | inactive: -1.06
GGAUACUGUUCCUUUAUAUTT against Slc15a2 | inactive: -1.07
CGAGUUUGGACAUACCUUUTT against D2Ertd391e | inactive: -0.145
GAGAGAGAAUACCACUGUGTT against LOC432555 | inactive: 1.16
GGUUUGUCAAUGAUACUAATT against Adam17 | inactive: 1.13
CGAGAUAUAUAGUUGGAUCTT against Cpa5 | inactive: -0.0453
GGAACCAGUGAUCUUCAAATT against Zim1 | inactive: 0.129
GCCAUACCUCACGAGAGCUTT against Mcpt8 | inactive: -0.251
CCAUGAAAAACUUAGUGUGTT against Trim37 | inactive: 0.497
GGAGAUUCAUCGCUACCUUTT against Ccna1 | inactive: -0.177
GACACCUACUUCAUUGGCCTT against Olfr1245 | inactive: 0.46
GGGAAAAAUCAACUUCACUTT against V1rk1 | inactive: 0.651
GGGUCUCUUACAAAGUCCATT against Msrb | inactive: -0.517
GGAGCAGGUGCUUUUGGAUTT against Cat | inactive: 0.0616
GGGAUUCAGAACUUAAAGUTT against V1rf4 | inactive: 0.81
GGCAUAUUCCGUUUUUAAATT against Pafah1b1 | inactive: 0.0506
GGAACUUACAUCAGAAAUGTT against Zdhhc2 | inactive: -0.285
GCCGGAUGGCACAUUCGUATT against Cda | inactive: 0.73
GGUAAACAGAAUAGAAUCCTT against Lcmt1 | inactive: 0.132

Sequence | z-score
CGUGAUAGAUGGAAGCUACTT against Cnbp2 | inactive: -0.343
GGAACAAGAACUUUCUAAGTT against Golph4 | inactive: 0.514
GGAUUCAACAGAUUUAGUGTT against Clcn1 | inactive: -0.136
GGAGCUUCUUAAUAACUUUTT against Xpo6 | inactive: 0.469
GGCUUCAUUAUCUGUUCUGTT against Olfr1442 | inactive: -0.538
GGACGACAAAUAGAAUUCUTT against Odf1 | inactive: 1.32
CCUCUAUGACUGGUACAGGTT against Ttyh3 | inactive: 0.389
ACUAGAUUUAUCCUGCACATT against LOC434225 | inactive: 0.565
GGGAUUGCUAUGUGCUUAGTT against As3mt | inactive: -0.0593
GCUGUUACCAGGUUUAAGUTT against AA589481 | inactive: 1.09
CGAACUUGAGAAUCUUAGATT against AI604832 | inactive: -1.08
GGCUCUGAACAGCAUUGACTT against Mdfi | inactive: -3.11
AAGGACGAUCCUGAUUUCATT against LOC432555 | inactive: 0.799
GGGUUAUGGAUUUGAAGUGTT against D930015E06Rik | inactive: -0.189
GGAUCCAGGAGUAUGAGAATT against Atp5h | inactive: -1.96
CGGGUCCAUUAACAAAGCUTT against Bmp1 | inactive: -0.453
GCUAUCAUGAAGCUAAAUGTT against Igf2bp1 | inactive: -0.686
GGCAAGAAAAACACUUUAUTT against Adprtl3 | inactive: 0.77
GGGUGAUAUGGACUAUAGGTT against Cd1d2 | inactive: 0.704
CCUCUAAAGUCCUCAAUAGTT against Myoz2 | inactive: -1.97
GCUAAUUCCAAGAAAGAAGTT against Lifr | inactive: 0.328
GAAGCUUUGGUGGUACUAATT against Krtap16-1 | inactive: -0.711
GGGCAAAAAGUGCAUCCGGTT against Ctgf | inactive: 1.02
CCACCACAGCACCGGAUAATT against Mrgprb3 | inactive: -1.19
GGCUGCAUUUUAAAACCGUTT against Prdm1 | inactive: 1.47
GGAAAGAGACAACUACUUATT against Gpr73 | inactive: 0.0455

Sequence | z-score
CCUGUCAGGGAUGGAUUUUTT against Bhlhb2 | inactive: -0.226
GGCUAUGAGUCGACUGAUUTT against Scin | inactive: 1.01
GGACUGAGGGCAAUGAAAATT against 4631426J05Rik | inactive: 0.0855
GGAUGCUGACAACAUAUACTT against Plk3 | inactive: 0.958
GCCCUUACCUUGUAAGUUCTT against Sln | inactive: -0.502
CCUUCUGUAGUUGGAAUCATT against 1110038F21Rik | inactive: -0.558
GCCAACUUAUGUUGUACGCTT against 2610511E22Rik | inactive: 1.6
GGACGAUCGGAAUUGGAAATT against Slc24a6 | inactive: -0.0282
CCUGGAUUUCCGGGAGUACTT against Col4a1 | inactive: -2.1
GCAUGUCUCAACUAAGGACTT against Upk3b | inactive: -0.0927
GGUGAUAUGCAUGAAAAUGTT against Hn1 | inactive: 0.573
GGGAACCUUGAAAUCAAUATT against Gpr75 | inactive: 0.686
GCGCAGAUAUCCUGGUUUGTT against Dhx36 | inactive: 0.854
CGCAUCAGUUUCUAUAAGATT against Rp1h | inactive: 1.14
GCCAACAGUAACGGUAUUGTT against Zfp278 | inactive: -1.02
CCCAAUUCGAUUUCUGCCGTT against Rnf11 | inactive: -0.407
CCCACCGAGACACCAUCUUTT against AI428936 | inactive: -0.606
GCAGCAAGCUGAAAAAGAGTT against Cstl1 | inactive: -0.894
GCUACUUCAUUCCCGUGGCTT against Slc29a1 | inactive: 0.263
CGUACGCAGAAAUGCCUAGTT against 1500011L16Rik | inactive: -0.135
GGAAAAGUUUGAAACCAAATT against Pmpca | inactive: -2.16
GGAAGAAGAACUGAAGACATT against Ctnnbl1 | inactive: -0.341
GGACAAGAGGUACACAAACTT against Eif3s7 | inactive: -2.13
GGCAUAGUAAUCGAGUACUTT against 2610524A10Rik | inactive: 0.336
GGAAUACAAAGAUAGCUUCTT against Atrn | inactive: 0.197
GGUUGUGCAAGAGUAUGAATT against Nphs2 | inactive: 2.88

As a short view, part of the list above.
Sequence | z-score
CCUGUCAGGGAUGGAUUUUTT against Bhlhb2 | inactive: -0.226
GGCUAUGAGUCGACUGAUUTT against Scin | inactive: 1.01
GGACUGAGGGCAAUGAAAATT against 4631426J05Rik | inactive: 0.0855
GGAUGCUGACAACAUAUACTT against Plk3 | inactive: 0.958
GCCCUUACCUUGUAAGUUCTT against Sln | inactive: -0.502
